According to patent US20060281791A1, “Methods of increasing proliferation of adult mammalian cardiomyocytes through p38 map kinase inhibition” (CHILDREN'S MEDICAL CENTER CORPORATION, priority 2005, published 2006):
At least one compound was matched to its structure with a doubt left.

Test system: neonatal (P2) cardiomyocytes
Experiment: Induction of DNA synthesis (BrdU incorporation) in neonatal cardiomyocytes
Assay type: cell-based, rat
Conditions: 10 μM
Method: Animal experiments were performed in accordance with guidelines of Children's Hospital, Boston and UCLA. Ventricular cardiomyocytes from fetal (E19), 2-day-old (P2) and adult (250-350 g) Wistar rats (Charles River) were isolated as described with minor modifications (Engel et al. 1999; Engel et al. 2003). After digestion of fetal or neonatal hearts (0.14 mg/ml collagenase II (Invitrogen), 0.55 mg/ml pancreatin (Sigma)) cells were cultured in DMEM/F12 (GIBCO) containing 3 mM Na-pyruvate, 0.2% BSA, 0.1 mM ascorbic acid (Sigma), 0.5% Insulin-Transferrin-Selenium (100×), penicillin (100 U/ml), streptomycin (100 μg/ml), and 2 mM L-glutamine (GIBCO). […]
Staining was performed as described (Supplemental Table S3) (Engel et al. 1999; Engel et al. 2003). Immune complexes were detected with ALEXA 350, ALEXA 488 or ALEXA 594-conjugated secondary antibodies (1:200, Molecular Probes). […]
Eighteen to 40 hearts of 3 different litters were used for quantitative analyses of maximal areas. For immunofluorescence analyses 1,500 fetal or neonatal cardiomyocytes were counted. For adult cardiomyocyte analyses in vitro the following number of cells were counted: 500-2,000 for BrdU or Ki67, 9,000-25,000 for H3P, and 12,000-45,000 for aurora B. For in vivo MKK3bE and p38α knockout experiments 2 different litters were used. We counted 1,500-2,000 cells in each apex, left and right ventricle per heart. […]

With O=c1cc(N2CCOCC2)oc2c(-c3ccccc3)cccc12 [LY294002] the “FGF1-induced DNA synthesis” value was “abolished”.
